# Measured values as given in PubChem BioAssay AID720504 (National Center for Advancing Translational Sciences (NCATS), 2013).
# Sequences of proteins named here, by UniProt entry; tags and fusion partners are left off.
# UniProt P53350, whole entry, looked up: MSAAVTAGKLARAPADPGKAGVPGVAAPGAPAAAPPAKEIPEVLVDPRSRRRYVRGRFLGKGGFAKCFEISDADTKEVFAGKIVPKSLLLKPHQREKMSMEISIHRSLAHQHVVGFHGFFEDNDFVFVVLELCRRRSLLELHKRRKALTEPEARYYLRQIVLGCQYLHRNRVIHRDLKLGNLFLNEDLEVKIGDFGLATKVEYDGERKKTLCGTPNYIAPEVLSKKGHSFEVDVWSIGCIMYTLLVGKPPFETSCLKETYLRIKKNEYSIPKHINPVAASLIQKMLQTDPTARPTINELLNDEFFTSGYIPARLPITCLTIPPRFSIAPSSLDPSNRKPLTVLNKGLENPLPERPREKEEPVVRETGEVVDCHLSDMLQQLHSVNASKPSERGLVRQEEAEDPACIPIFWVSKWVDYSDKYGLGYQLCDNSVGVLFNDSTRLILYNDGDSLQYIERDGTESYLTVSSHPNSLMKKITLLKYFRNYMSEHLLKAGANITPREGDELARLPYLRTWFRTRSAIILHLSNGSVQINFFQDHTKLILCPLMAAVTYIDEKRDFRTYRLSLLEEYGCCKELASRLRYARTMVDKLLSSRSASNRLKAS
# Out of some 360,000 compounds screened, about 10,000 (2.8%) were called active. The inconclusive results got no clear call from the source; some entries with a clear call stand among them for comparison. Calls follow the shape of the dose curve; as a rule, active = well fitted inhibition curve with a large enough effect; inconclusive = small, poorly fitted or top-dose-only effect; inactive = flat fitted curve, though single readings scatter. A potency beside an inconclusive call is a rough fit, not a confirmed value.
# Molecular target: Serine/threonine-protein kinase PLK1 (Homo sapiens) (UniProt P53350)
# Experiment: qHTS for Inhibitors of PLK1-PDB (polo-like kinase 1 - polo-box domain): Primary Screen; also: nearly all actives have a fitted effect of over 65% in size; as to max response, negative = inhibition: series mostly up to about 57 µM
# Conditions: Plk1 PBD binding of FITC phosphopeptide, fluorescence polarization
# % is scaled to controls: 0 for no effect and ±100 for the full control effect; potency is read from the fitted curve at half-maximal effect.
SMILES,Potency,"max response, negative = inhibition"
Cc1csc(-c2nc3ccccc3n2C(C(=O)NC(C)(C)C)c2cc3ccccc3o2)c1 (stereo not given),"inconclusive: 26.7 µM [inhibitor, partial curve]",
COc1ccc(OC)c(NC(=O)CSC2=NCCS2)c1,,inconclusive: -31.7% [inhibitor]
CCCc1cc(-c2n[nH]c(=S)n2CC)cs1,"inconclusive: 21.2 µM [inhibitor, single point]",
O=C(Nc1ccc(Cl)cc1C(F)(F)F)C(Sc1nnc(-c2cccs2)o1)c1ccccc1 (stereo not given),,inconclusive: -36.7% [inhibitor]
C/C(=N\NC(=S)Nc1cc(S(=O)(=O)N2CCOCC2)ccc1Cl)c1ccc(N2CCOCC2)cc1,,inconclusive: -37% [inhibitor]
COc1ccc2nc(SCC(=O)NCc3ccc(OC)c(OC)c3)[nH]c2c1,"inconclusive: 33.6 µM [inhibitor, single point]",
O=C(NCCNc1ccc([N+](=O)[O-])cc1)c1ccco1,"inconclusive: 26.7 µM [inhibitor, single point]",
CC1(C(=O)Nc2ccc(Cl)c(Cl)c2)CCN1C(=O)C1CCCCC1 (stereo not given),,inactive: -9.96%
Cc1ccc(CCN2CC(C(=O)NCCCN3CCC(C)CC3)CC2=O)cc1 (stereo not given),active: 26.7 µM,
S=c1[nH]nc(COc2ccc(Cl)cc2)n1-c1ccc(Cl)cc1,"inconclusive: 23.8 µM [inhibitor, partial curve]",
C=CCN1CCC(=O)C(C(=O)OCC)=C1C(=O)OCC,,inactive: -10.4%
COc1ccc(S(=O)(=O)N2CCCCCC2)cc1C(=O)OCC(=O)NC1CCS(=O)(=O)C1 (stereo not given),,inactive: 3.74%
Cc1cccc(Nc2nc(-c3ccc4c(c3)OCCO4)cs2)c1,,inactive: -8.49%
Cc1ccnc(NC(c2cccnc2)c2ccc3cccnc3c2O)c1 (stereo not given),"inconclusive: 26.7 µM [inhibitor, partial curve]",
Cc1cc(/C=C(/C#N)c2nc3ccccc3[nH]2)c(C)n1-c1cc(C(=O)O)cc(C(=O)O)c1,"inconclusive: 9.47 µM [inhibitor, partial curve]",
CCc1nnc(NC(=O)CSc2nc(-c3ccc(F)cc3)cc(-c3ccccc3)c2C#N)s1,,inactive: -15.9%
O=c1oc(Cc2ccccc2)nc2ccccc12,,inactive: -10.7%
CC(C)CCNC(=O)C1(c2cccs2)CCOCC1,"inconclusive: 23.8 µM [inhibitor, single point]",
O=C(CC12CC3CC(C1)CC(CC(=O)NC1=NCCS1)(C3)C2)NC1=NCCS1,,inactive: -15.8%
O=C1C=C(NCCc2cc(Br)c(O)c(Br)c2)C(=O)c2ncccc21,active: 2.67 µM,
C=CCN(C(=O)CCC(=O)Nc1cc(C)on1)C(C(=O)NC1CCCC1)c1ccc(OC)cc1OC (stereo not given),,inactive: -4.39%
CCCn1c(SCC(=O)Nc2cc(S(=O)(=O)N3CCOCC3)ccc2OC)n[nH]c1=O,active: 29.9 µM,
O=C(NC12CC3CC(CC(C3)C1)C2)c1ccccc1O,"inconclusive: 29.9 µM [inhibitor, single point]",

# Rewritten tab-delimited: part of the list above.
SMILES	Potency	max response, negative = inhibition
Cc1ccc(CCN2CC(C(=O)NCCCN3CCC(C)CC3)CC2=O)cc1 (stereo not given)	active: 26.7 µM	
S=c1[nH]nc(COc2ccc(Cl)cc2)n1-c1ccc(Cl)cc1	inconclusive: 23.8 µM [inhibitor, partial curve]	
C=CCN1CCC(=O)C(C(=O)OCC)=C1C(=O)OCC		inactive: -10.4%

# Further compounds.

SMILES,Potency,"max response, negative = inhibition"
COc1ccc(NC(=O)O/N=C/c2ccncc2)cc1,"inconclusive: 29.9 µM [inhibitor, single point]",
COc1ccc(-c2cc(-c3ccc(Cl)cc3)c(C#N)c(SCC(=O)O)n2)cc1,"inconclusive: 23.8 µM [inhibitor, single point]",
CCOc1ccc(Cc2nn[nH]n2)cc1,"inconclusive: 23.8 µM [inhibitor, single point]",
COc1ccc(S(=O)(=O)N2CCCC2C(=O)Nc2nnc(-c3cccnc3)s2)cc1 (stereo not given),active: 26.7 µM,
C[C@@H]1O[C@H](C2CCCCC2)Cc2[nH][nH]c(=O)c21,"inconclusive: 42.3 µM [inhibitor, partial curve, poor fit]",
Cc1ccc2nc(SCCC#N)nc(C)c2c1,"inconclusive: 26.7 µM [inhibitor, partial curve]",
CCCN(CC(=O)Nc1ccc(F)c(F)c1F)C(=O)CN1C(=O)NC2(CCCCC2)C1=O,,inactive: -2.11%
Cc1ccc2c(c1)C(=O)C(=O)N2Cc1ccc(C(F)(F)F)cc1,"inconclusive: 26.7 µM [inhibitor, single point]",
COc1cc(OC)cc(C(=O)NNS(=O)(=O)c2ccc(F)cc2)c1,,inactive: -10.5%
Clc1ccc(Br)cc1-c1nc(-c2ccncc2)no1,"inconclusive: 26.7 µM [inhibitor, partial curve]",
COC(=O)/C(=N/Nc1ccccc1OC)N1CCCc2ccccc21,"inconclusive: 23.8 µM [inhibitor, partial curve]",
COC1(OC)N=C(NC(=O)Nc2ccccc2)C2(C#N)C(c3ccccc3)C12C#N (stereo not given),"inconclusive: 29.9 µM [inhibitor, single point]",
COC(=O)c1ccc(-n2c(C)cc(C(=O)CCl)c2C)cc1,"inconclusive: 29.9 µM [inhibitor, partial curve]",
CC(C)(C)NC(=O)COc1ccc(CNCc2cccs2)cc1,"inconclusive: 33.6 µM [inhibitor, single point]",
CC1=NN(c2ccc(C)cc2C)C(=O)C1C(c1ccccc1)C1C(=O)N(c2ccc(C)cc2C)N=C1C (stereo not given),active: 18.9 µM,
CC(C)C[C@H]1CN=C(Nc2ccccc2)N1CC1CCCC1,,inactive: -1.06%
Cc1ccccc1N=C1NC(=O)/C(=C/c2cccn2-c2cccc(C(=O)O)c2)S1,active: 16.8 µM,
Cc1[nH][nH]c(=O)c1C(c1ccc(-c2ccc(Cl)c(C(=O)O)c2)o1)c1c(C)[nH][nH]c1=O,"inconclusive: 18.9 µM [inhibitor, partial curve]",
S=c1[nH]c2ccccc2c2ccccc12,active: 18.9 µM,
CC(C)Oc1cccc(C2NC(=O)c3ccccc3O2)c1 (stereo not given),"inconclusive: 21.2 µM [inhibitor, single point]",
CC(C(=O)N(C)C1CCS(=O)(=O)C1)N1C(=O)/C(=C/c2ccco2)SC1=S (stereo not given),"inconclusive: 26.7 µM [inhibitor, partial curve]",
CC(C)(C)c1ccc(NC(=O)Nc2ccc(F)cc2)cc1,active: 26.7 µM,
